Data as given in PubChem BioAssay AID602196 (INSERM, 2012)
The whole screen tested about 23,000 reagents; this is an unselected part. 455 of all reagents (2%) count as active. 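Active includes both protection and sensitisation; some change values fall well beyond the stated -50 to +50 range.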 Entries without a mark were called inactive. Reagent sequences are not shown. The record does not give: the amount of reagent.

Screen: 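Modifiers of cisplatin sensitivity in A549 cells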
Cells: human A549 lung cancer cells
Reagents: siRNA pair against human genes
Duration: 48 h transfection before cisplatin; time from cisplatin to read-out not stated
Treatment: cisplatin at a dose killing half of control-siRNA cells; exact dose and duration not given
Measurement: 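Cisplatin cell death as a shift from the 50% death seen with control siRNA; siRNAs toxic or growth-blocking alone scored 0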
Direction: two-siRNA summed score (-2 to +2): higher = both siRNAs protect from cisplatin killing; -2 means both sensitise; mean protection from cisplatin (shift in death) and protection from cisplatin (shift in death), siRNA C and protection from cisplatin (shift in death), siRNA D: higher = protection from cisplatin killing
Hit rule: 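Each siRNA scores 0 if harmful alone by LDH or WST-1, otherwise +1 if it reduces and -1 if it increases cisplatin killing; a gene is active when both siRNAs agree (sum +2 or -2)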
Meaning of the calls: active = both siRNAs shift cisplatin killing the same way; inactive = no consistent shift, or siRNA harmful alone

no.	gene knocked down	two-siRNA summed score (-2 to +2)	mean protection from cisplatin (shift in death) (%)	protection from cisplatin (shift in death), siRNA C (%)	protection from cisplatin (shift in death), siRNA D (%)
1	FKTN (fukutin)	0	3.2	1.5	5
2	MRPL47 (mitochondrial ribosomal protein L47)	0	8.9	9.1	8.7
3	LOC401713	0	12.9	6.8	18.9
4	CIRSR (corepressor of RBPJ and splicing regulator)	0	-1.5	5	-8
5	CLINT1 (clathrin interactor 1)	1	5.6	-2.4	13.6
6	CYBA (cytochrome b-245 alpha chain)	0	1.4	-3.6	6.4
7	PRPS1L1 (phosphoribosyl pyrophosphate synthetase 1 like 1)	0	14.4	11.1	17.7
8	NXPH3 (neurexophilin 3)	1	12.9	29.6	-3.9
9	RNASE11 (ribonuclease A family member 11 (inactive))	0	6.3	16	-3.4
10	HYDIN (HYDIN axonemal central pair apparatus protein)	0	0.8	7.9	-6.3
11	LOC441151	1	15.7	23.1	8.3
12	IFT70A (intraflagellar transport 70A)	1	12.1	26.9	-2.7
13	APOC2 (apolipoprotein C2)	0	-5.9	0.3	-12.1
14	POLL (DNA polymerase lambda)	0	-2.2	18	-22.5
15	GCNT2 (glucosaminyl (N-acetyl) transferase 2 (I blood group))	1	2.3	13.2	-8.5
16	NPM3 (nucleophosmin/nucleoplasmin 3)	1	20.8	25.9	15.7
17	TBCK (TBC1 domain containing kinase)	0	0.8	15.3	-13.6
18	CD99L2 (CD99 molecule like 2)	1	8	0.5	15.5
19	DMAC2L (distal membrane arm assembly component 2 like)	0	12.2	11.8	12.7
20	LOC441005	1	15.6	28.8	2.4
21	VPS25P1 (VPS25 pseudogene 1)	0	7.5	-4.7	19.8
22	LOC389637	0	1.5	4.2	-1.3
23	TSSK2 (testis specific serine kinase 2)	0	1.7	5.6	-2.1

An excerpt from above, limited to “mean protection from cisplatin (shift in death) (%)”.
GCNT2 (glucosaminyl (N-acetyl) transferase 2 (I blood group)): 2.3
NPM3 (nucleophosmin/nucleoplasmin 3): 20.8
